From patent US20080166352A1
These are yes or no findings as the source states them, for the method shown. Some entries that bind do so weakly or less than the wild type. Sequences can lack the tags named with a protein.

Experiments:
[1] = molecular target: T1, human B7RP1 extracellular domain fused to chicken avidin (human; chicken) (UniProt O75144); experiment: avidin fusion on biotin-coated beads, flow cytometry (FIG. 9A legend)
T1 sequence: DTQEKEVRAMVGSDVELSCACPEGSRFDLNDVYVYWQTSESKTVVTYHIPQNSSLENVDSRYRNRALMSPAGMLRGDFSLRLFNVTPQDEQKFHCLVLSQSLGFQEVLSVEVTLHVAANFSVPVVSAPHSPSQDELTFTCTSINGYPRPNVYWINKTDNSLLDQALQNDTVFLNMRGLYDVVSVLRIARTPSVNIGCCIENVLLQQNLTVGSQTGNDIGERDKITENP

[2] = molecular target: T2, human B7RP-1 Ig1 (IgV-like) domain fused to chicken avidin (human; chicken) (UniProt O75144); experiment: avidin fusion on biotin-coated beads, labeled reagent, flow cytometry
T2 sequence: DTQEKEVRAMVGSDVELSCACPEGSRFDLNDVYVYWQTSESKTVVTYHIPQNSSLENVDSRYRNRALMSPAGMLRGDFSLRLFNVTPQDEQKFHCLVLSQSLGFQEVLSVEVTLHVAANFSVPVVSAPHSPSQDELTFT

[3] = molecular target: T1, human B7RP1 extracellular domain fused to chicken avidin (human; chicken); experiment: as above

Measured: binding

B1: ICOS-Fc fusion protein (Fc fusion, UniProt Q9Y6W8 21-140, looked up, not shown: a dimerising Fc or GST)
chain: EINGSANYEMFIFHNGGVQILCKYPDIVQQFKMQLLKGGQILCDLTKTKGSGNTVSIKSLKFCHSQLSNNSVSFFLYNLDHSHANYYFCNLSIFDPPPFKVTLTGGYLHIYESQLCCQLK
binds: all assays above
